According to article PMC9012288:
These are yes or no findings as the source states them, for the method shown. Binding seen in cells or lysates may run through a third protein. Here binding means that the protein was enriched with, or labelled near, the bait; the list need not be complete.

Sequences of proteins named here, by UniProt entry; tags and fusion partners are left off.
UniProt Q9BVC4: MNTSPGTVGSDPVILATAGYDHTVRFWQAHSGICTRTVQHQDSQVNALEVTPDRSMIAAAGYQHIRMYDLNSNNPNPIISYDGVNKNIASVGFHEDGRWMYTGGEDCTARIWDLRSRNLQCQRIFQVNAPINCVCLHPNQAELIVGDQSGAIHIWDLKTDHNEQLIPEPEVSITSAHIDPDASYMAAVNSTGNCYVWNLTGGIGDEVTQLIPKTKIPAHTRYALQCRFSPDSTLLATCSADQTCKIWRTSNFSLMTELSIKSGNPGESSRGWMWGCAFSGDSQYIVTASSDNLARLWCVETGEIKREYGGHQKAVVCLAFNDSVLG
UniProt P48643: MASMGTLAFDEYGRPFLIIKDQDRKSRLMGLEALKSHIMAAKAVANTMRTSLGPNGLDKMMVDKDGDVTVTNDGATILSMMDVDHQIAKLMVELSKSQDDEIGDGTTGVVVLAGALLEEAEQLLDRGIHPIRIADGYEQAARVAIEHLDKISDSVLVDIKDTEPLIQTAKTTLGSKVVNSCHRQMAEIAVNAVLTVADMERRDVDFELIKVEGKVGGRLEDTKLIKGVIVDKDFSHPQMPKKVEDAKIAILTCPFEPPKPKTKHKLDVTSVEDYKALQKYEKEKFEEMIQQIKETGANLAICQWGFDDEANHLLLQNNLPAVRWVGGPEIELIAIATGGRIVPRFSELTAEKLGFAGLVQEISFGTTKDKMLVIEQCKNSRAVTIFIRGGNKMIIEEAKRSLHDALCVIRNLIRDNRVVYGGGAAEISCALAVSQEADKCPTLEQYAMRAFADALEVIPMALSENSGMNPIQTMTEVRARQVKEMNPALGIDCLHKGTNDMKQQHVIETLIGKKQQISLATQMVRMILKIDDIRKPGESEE
UniProt Q99832: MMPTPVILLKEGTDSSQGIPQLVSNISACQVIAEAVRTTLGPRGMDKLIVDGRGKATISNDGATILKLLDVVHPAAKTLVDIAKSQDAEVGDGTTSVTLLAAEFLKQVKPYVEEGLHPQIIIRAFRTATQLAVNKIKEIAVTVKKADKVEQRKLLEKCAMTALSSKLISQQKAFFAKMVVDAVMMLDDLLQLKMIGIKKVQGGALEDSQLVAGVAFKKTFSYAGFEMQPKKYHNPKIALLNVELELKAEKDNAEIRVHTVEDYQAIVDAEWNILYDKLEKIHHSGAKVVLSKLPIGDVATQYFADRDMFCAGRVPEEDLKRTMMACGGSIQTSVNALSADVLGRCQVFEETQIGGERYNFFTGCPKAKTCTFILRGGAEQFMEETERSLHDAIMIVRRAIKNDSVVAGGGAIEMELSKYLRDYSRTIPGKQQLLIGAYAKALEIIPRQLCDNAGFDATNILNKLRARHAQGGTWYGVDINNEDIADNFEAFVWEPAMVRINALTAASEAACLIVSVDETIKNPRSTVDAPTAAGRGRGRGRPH
UniProt P50990: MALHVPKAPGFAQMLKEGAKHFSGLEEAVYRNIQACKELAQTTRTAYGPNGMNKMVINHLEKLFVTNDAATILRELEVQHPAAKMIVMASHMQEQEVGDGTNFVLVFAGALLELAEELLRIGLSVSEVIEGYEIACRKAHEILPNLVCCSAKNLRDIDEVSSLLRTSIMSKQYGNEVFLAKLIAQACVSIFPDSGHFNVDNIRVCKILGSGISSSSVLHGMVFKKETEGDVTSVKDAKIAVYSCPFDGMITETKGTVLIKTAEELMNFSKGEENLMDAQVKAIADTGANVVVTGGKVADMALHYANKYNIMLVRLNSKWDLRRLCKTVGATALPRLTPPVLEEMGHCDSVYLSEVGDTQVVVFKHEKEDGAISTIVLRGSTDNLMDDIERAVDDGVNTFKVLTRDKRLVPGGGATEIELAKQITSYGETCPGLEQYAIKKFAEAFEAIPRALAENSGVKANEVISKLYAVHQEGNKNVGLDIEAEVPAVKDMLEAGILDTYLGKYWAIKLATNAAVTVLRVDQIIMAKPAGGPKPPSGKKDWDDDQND

B1: CCT2, component of the CCT chaperone complex (protein, UniProt P78371 1-535)
chain: MASLSLAPVNIFKAGADEERAETARLTSFIGAIAIGDLVKSTLGPKGMDKILLSSGRDASLMVTNDGATILKNIGVDNPAAKVLVDMSRVQDDEVGDGTTSVTVLAAELLREAESLIAKKIHPQTIIAGWREATKAAREALLSSAVDHGSDEVKFRQDLMNIAGTTLSSKLLTHHKDHFTKLAVEAVLRLKGSGNLEAIHIIKKLGGSLADSYLDEGFLLDKKIGVNQPKRIENAKILIANTGMDTDKIKIFGSRVRVDSTAKVAEIEHAEKEKMKEKVERILKHGINCFINRQLIYNYPEQLFGAAGVMAIEHADFAGVERLALVTGGEIASTFDHPELVKLGSCKLIEEVMIGEDKLIHFSGVALGEACTIVLRGATQQILDEAERSLHDALCVLAQTVKDSRTVYGGGCSEMLMAHAVTQLANRTPGKEAVAMESYAKALRMLPTIIADNAGYDSADLVAQLRAAHSEGNTTAGLDMREGTIGDMAILGITESFQVKRQVLLSAAEAAEVILRVDNIIKAAPRKRVPDHHPC

Biological target: FLAG-tagged mLST8 (mammalian lethal with SEC13 protein 8), stably expressed in U251 cells (human (cDNA from U251 cells)) (UniProt Q9BVC4)
Experiment: affinity purification with mass spectrometry; FLAG-mLST8 immunoprecipitated with anti-FLAG M2 beads from U251 cells stably expressing FLAG-mLST8; lysis in 50 mM Tris-Cl pH 7.5, 150 mM KCl, 0.5% NP-40, 1 mM PMSF, 4 °C, 3 h; on-bead trypsin digest, Q-Exactive

| Molecule | binding |
| --- | --- |
| CCT5, component of the CCT chaperone complex (from UniProt P48643 1-541) | binds |
| CCT7, component of the CCT chaperone complex (from UniProt Q99832 1-543) | binds |
| CCT8, component of the CCT chaperone complex (from UniProt P50990 1-548) | binds |
| B1 | binds |
